# Measured values taken from paper PMC11618363.
# The chains behind the UniProt entries cited, without tags or fusion partners. Residues count along the entry.
# UniProt Q8R4B8: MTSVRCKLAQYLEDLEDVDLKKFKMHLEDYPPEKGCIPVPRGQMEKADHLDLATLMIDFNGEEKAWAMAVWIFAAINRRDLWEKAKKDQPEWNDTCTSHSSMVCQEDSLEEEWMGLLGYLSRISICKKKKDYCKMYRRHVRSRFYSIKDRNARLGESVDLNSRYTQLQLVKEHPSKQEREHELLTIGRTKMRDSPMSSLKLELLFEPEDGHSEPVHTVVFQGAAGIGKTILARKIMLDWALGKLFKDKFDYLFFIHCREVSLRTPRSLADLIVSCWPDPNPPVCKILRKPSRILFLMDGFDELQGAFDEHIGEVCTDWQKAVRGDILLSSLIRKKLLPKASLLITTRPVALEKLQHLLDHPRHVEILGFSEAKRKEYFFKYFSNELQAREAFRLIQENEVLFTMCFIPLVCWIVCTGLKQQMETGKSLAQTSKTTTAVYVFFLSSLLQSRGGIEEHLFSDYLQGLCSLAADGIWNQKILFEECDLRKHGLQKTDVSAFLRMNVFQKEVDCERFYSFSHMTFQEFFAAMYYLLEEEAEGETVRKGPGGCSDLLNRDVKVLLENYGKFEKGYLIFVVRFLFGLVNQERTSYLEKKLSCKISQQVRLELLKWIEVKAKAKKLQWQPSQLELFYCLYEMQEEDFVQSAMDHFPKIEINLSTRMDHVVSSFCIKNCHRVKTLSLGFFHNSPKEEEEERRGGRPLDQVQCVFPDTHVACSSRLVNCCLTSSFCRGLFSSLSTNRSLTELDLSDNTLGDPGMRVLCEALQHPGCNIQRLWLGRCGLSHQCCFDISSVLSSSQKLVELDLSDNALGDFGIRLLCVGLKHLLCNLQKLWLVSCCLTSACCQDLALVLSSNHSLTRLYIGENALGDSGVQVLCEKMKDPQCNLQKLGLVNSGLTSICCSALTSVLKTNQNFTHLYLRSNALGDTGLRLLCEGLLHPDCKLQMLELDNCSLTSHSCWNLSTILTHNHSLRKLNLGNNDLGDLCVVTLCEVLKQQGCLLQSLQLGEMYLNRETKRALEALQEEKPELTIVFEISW
# UniProt P13020, residues 26-780: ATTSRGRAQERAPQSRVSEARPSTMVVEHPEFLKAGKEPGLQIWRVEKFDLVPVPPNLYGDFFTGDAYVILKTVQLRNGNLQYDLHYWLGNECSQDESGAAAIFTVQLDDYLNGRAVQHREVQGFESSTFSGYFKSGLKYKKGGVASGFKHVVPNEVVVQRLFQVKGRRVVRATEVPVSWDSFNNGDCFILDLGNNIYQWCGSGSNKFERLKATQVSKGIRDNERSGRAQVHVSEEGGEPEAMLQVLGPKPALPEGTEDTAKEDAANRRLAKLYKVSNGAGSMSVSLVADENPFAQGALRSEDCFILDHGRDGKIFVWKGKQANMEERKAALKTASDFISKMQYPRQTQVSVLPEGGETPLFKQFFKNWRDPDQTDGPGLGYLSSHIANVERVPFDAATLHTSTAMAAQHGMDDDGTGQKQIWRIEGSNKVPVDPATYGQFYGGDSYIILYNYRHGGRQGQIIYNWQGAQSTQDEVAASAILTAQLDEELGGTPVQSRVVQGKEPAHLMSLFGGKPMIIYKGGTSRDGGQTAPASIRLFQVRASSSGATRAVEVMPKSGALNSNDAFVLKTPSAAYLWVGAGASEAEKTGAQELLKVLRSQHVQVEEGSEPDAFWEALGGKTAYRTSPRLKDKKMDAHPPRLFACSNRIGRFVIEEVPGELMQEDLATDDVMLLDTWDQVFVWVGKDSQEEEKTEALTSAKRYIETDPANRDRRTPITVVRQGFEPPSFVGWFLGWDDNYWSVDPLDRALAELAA
# Like-named read-outs stand apart in the source and are kept apart here. These are yes or no findings as the source states them, for the method shown. For some of these results: Binding seen in cells or lysates may run through a third protein. Some entries that bind do so weakly or less than the wild type. For some of these results: Tags and fused reporters may be left off the sequences shown.
# B1: MAVS-His (protein, UniProt Q8VCF0 1-503)
# chain: MTFAEDKTYKYIRDNHSKFCCVDVLEILPYLSCLTASDQDRLRASYRQIGNRDTLWGLFNNLQRRPGWVEVFIRALQICELPGLADQVTRVYQSYLPPGTSLRSLEPLQLPDFPAAVSGPSAFAPGHNIPDHGLRETPSCPKPVQDTQPPESPVENSEQLLQTNSGAVARMSGGSLIPSPNQQALSPQPSREHQEQEPELGGAHAANVASVPIATYGPVSPTVSFQPLPRTALRTNLLSGVTVSALSADTSLSSSSTGSAFAKGAGDQAKAATCFSTTLTNSVTTSSVPSPRLVPVKTMSSKLPLSSKSTAAMTSTVLTNTAPSKLPSNSVYAGTVPSRVPASVAKAPANTIPPERNSKQAKETPEGPATKVTTGGNQTGPNSSIRSLHSGPEMSKPGVLVSQLDEPFSACSVDLAISPSSSLVSEPNHGPEENEYSSFRIQVDESPSADLLGSPEPLATQQPQEEEEHCASSMPWAKWLGATSALLAVFLAVMLYRSRRLAQ
# B2: MAVS (protein, UniProt Q8VCF0 1-503)
# chain: B1 chain
# B3: pro-caspase-1 (protein, UniProt P29452 1-402)
# chain: MADKILRAKRKQFINSVSIGTINGLLDELLEKRVLNQEEMDKIKLANITAMDKARDLCDHVSKKGPQASQIFITYICNEDCYLAGILELQSAPSAETFVATEDSKGGHPSSSETKEEQNKEDGTFPGLTGTLKFCPLEKAQKLWKENPSEIYPIMNTTTRTRLALIICNTEFQHLSPRVGAQVDLREMKLLLEDLGYTVKVKENLTALEMVKEVKEFAACPEHKTSDSTFLVFMSHGIQEGICGTTYSNEVSDILKVDTIFQMMNTLKCPSLKDKPKVIIIQACRGEKQGVVLLKDSVRDSEEDFLTDAIFEDDGIKKAHIEKDFIAFCSSTPDNVSWRHPVRGSLFIESLIKHMKEYAWSCDLEDIFRKVRFSFEQPEFRLQMPTADRVTLTKRFYLFPGH
# Columns and labels:
# [1] = molecular target: Flag-NLRP3 (UniProt Q8R4B8); assay: co-IP; HEK293T transiently transfected for 48 h; lysate in 50 mM HEPES pH 7.0, 250 mM NaCl, 1 mM EDTA, 0.2% Nonidet P-40; overnight at 4 °C with anti-Flag M2 affinity gel or anti-c-Myc agarose; immunoblot; in some experiments varying amounts of cGSN or MAVS plasmid, or BAPTA-AM (5, 20, 40 μM) during transfection
# [2] = molecular target: Flag-NLRP3 (UniProt Q8R4B8); assay: as above; remark: listed apart in the source
# [3] = molecular target: NLRP3 (mouse (endogenous in BMDMs, J774.1 cells, peritoneal resident macrophages)) (UniProt Q8R4B8); assay: proximity ligation; in situ PLA (Duolink) on fixed, permeabilised cells primed with LPS 100 ng/mL for 3 h; BMDMs, control and Gsn-KO J774.1 cells, Gsn fl/fl and Gsn ΔMye peritoneal resident macrophages
# [4] = molecular target: NLRP3 (mouse (endogenous in BMDMs, J774.1 cells, peritoneal resident macrophages)) (UniProt Q8R4B8); assay: SEC; BMDM lysate (LPS-primed, with or without nigericin 5 μM, 45 min) fractionated on Superdex 200 prep grade in 20 mM sodium phosphate, 150 mM NaCl, pH 7.0; fractions immunoblotted
molecule,measurement,setting,value
Myc-pGSN (from UniProt P13020 26-780),binding,[1],binds
B1,binding,[2],binds
B2,binding,[3],binds
B3,binding,[4],binds
